Binding data for 3 molecules are collected here from PMC12594208, “SLC25A45 is required for mitochondrial uptake of methylated amino acids and de novo carnitine biosynthesis” (Molecular Cell, 2025).

Assay [1] addresses T1, SLC25A45^R285C-FLAG (human) (UniProt Q8N413).
T1 sequence: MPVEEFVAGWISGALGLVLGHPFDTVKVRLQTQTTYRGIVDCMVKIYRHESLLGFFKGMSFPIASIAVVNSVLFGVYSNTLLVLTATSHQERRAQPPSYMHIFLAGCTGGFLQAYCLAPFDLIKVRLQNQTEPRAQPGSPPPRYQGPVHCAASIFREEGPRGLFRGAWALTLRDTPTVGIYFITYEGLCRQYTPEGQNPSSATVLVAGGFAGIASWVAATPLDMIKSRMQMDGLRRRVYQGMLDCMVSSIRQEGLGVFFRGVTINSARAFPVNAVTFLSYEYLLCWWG
Briefly: affinity purification with mass spectrometry; FLAG-IP (anti-DYKDDDDK agarose beads, 2 h, 4 °C) from 1 mg isolated mitochondria of SLC25A45 KO AsPC-1 cells expressing empty vector, SLC25A45-FLAG or SLC25A45^R285C-FLAG; digitonin lysis buffer (5 g digitonin/g protein, 25 mM Tris-HCl pH 7.5, 150 mM NaCl); on-bead digestion, label-free quantification; n = 3.

For the next assay, the target named is T2, WT SLC25A45-FLAG (human) (UniProt Q8N413).
T2 sequence: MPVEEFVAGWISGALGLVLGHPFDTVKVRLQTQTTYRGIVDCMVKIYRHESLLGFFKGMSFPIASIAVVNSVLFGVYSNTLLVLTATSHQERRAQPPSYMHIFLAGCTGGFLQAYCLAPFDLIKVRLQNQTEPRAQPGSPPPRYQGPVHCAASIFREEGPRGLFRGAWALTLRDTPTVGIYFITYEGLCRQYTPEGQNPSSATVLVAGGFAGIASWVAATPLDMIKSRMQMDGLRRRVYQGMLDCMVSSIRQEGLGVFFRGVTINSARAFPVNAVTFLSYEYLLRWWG
The description is as above.

No constants are given. Whether binding was seen depends on the method and setting. Binding seen in cells or lysates may run through a third protein. A yes stands for co-enrichment or nearness to the bait. Other partners may have been found. For part of these data: No binding means not detected with the bait. Where a sequence is shown, tags or fusion partners need not be part of it.

B1: SLC25A3 (protein, UniProt Q00325 50-362)
chain: AVEEQYSCDYGSGRFFILCGLGGIISCGTTHTALVPLDLVKCRMQVDPQKYKGIFNGFSVTLKEDGVRGLAKGWAPTFLGYSMQGLCKFGFYEVFKVLYSNMLGEENTYLWRTSLYLAASASAEFFADIALAPMEAAKVRIQTQPGYANTLRDAAPKMYKEEGLKAFYKGVAPLWMRQIPYTMMKFACFERTVEALYKFVVPKPRSECSKPEQLVVTFVAGYIAGVFCAIVSHPADSVVSVLNKEKGSSASLVLKRLGFKGVWKGLFARIIMIGTLTALQWFIYDSVKVYFRLPRPPPPEMPESLKKKLGLTQ
Take B1: the binding entry (in assay [1]; with WT SLC25A45-FLAG (human)) was “binds” throughout.

B2: TIMM8A (protein, UniProt O60220 1-97)
chain: MDSSSSSSAAGLGAVDPQLQHFIEVETQKQRFQQLVHQMTELCWEKCMDKPGPKLDSRAEACFVNCVERFIDTSQFILNRLEQTQKSKPVFSESLSD
On to B2, for which the results for the binding entry (in assay [1]; with WT SLC25A45-FLAG (human)) were “no binding” and “binds”, respectively.

B3: SLC25A13 (protein, UniProt Q9UJS0 1-675)
chain: MAAAKVALTKRADPAELRTIFLKYASIEKNGEFFMSPNDFVTRYLNIFGESQPNPKTVELLSGVVDQTKDGLISFQEFVAFESVLCAPDALFMVAFQLFDKAGKGEVTFEDVKQVFGQTTIHQHIPFNWDSEFVQLHFGKERKRHLTYAEFTQFLLEIQLEHAKQAFVQRDNARTGRVTAIDFRDIMVTIRPHVLTPFVEECLVAAAGGTTSHQVSFSYFNGFNSLLNNMELIRKIYSTLAGTRKDVEVTKEEFVLAAQKFGQVTPMEVDILFQLADLYEPRGRMTLADIERIAPLEEGTLPFNLAEAQRQKASGDSARPVLLQVAESAYRFGLGSVAGAVGATAVYPIDLVKTRMQNQRSTGSFVGELMYKNSFDCFKKVLRYEGFFGLYRGLLPQLLGVAPEKAIKLTVNDFVRDKFMHKDGSVPLAAEILAGGCAGGSQVIFTNPLEIVKIRLQVAGEITTGPRVSALSVVRDLGFFGIYKGAKACFLRDIPFSAIYFPCYAHVKASFANEDGQVSPGSLLLAGAIAGMPAASLVTPADVIKTRLQVAARAGQTTYSGVIDCFRKILREEGPKALWKGAGARVFRSSPQFGVTLLTYELLQRWFYIDFGGVKPMGSEPVPKSRINLPAPNPDHVGGYKLAVATFAGIENKFGLYLPLFKPSVSTSKAIGGGP
For the molecule B3, the binding entry (in assay [1]; in the assay with WT SLC25A45-FLAG (human)) was “binds” in each case.
